# According to the supplement of paper PMC8728848:
# This is one part of the list.
# B1: SrpA (Streptococcus sanguis) (protein)
# chain: SSKSESTVNSQSASSETNRSSTNNGSTSSSSETARVRKRRATDTTPPTITVPSDIIAYRGEEFEFYFEITDDSGQVKNIELSTFGKPLGLNWLEYSEDNFNVPGNATSDNPLRVRVHGTVPLNEPIPADKNRAQFTRTIRAWDAAGNVSSNITFVIKYRAQTDKYNPADPTITYVDRLSSLSPSEKNAVEAAVRAANPQIPAAARITVSANGTVTITYPDSSTDTITANRVVKDLASSRSALT
# How the values were obtained:
# Test in all cases: glycan array binding signal (z-score within array); higher = stronger binding
# Settings in all cases: glycan notation: IUPAC condensed, linker removed
# Neu5Ac(a2-3)GalNAc = biological target: Neu5Ac(a2-3)GalNAc
# How it was run: (§1)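 The binding signal is a Z-score computed within each array and averaged over linkers. Arrays of the same protein sequence at different concentrations or buffers were also averaged together. Data originate from 3228 arrays in the Consortium for Functional Glycomics database, kept only where the protein sequence was available.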
# [1] = biological target: Neu5Ac(a2-3)GalNAc(b1-4)GlcNAc
# How it was run: as §1
# [2] = biological target: Neu5Ac(a2-3)[GalNAc(b1-4)]Gal(b1-4)Glc
# How it was run: as §1
# [3] = biological target: Neu5Ac(a2-3)[GalNAc(b1-4)]Gal(b1-4)GlcNAc
# How it was run: as §1
# [4] = biological target: Neu5Ac(a2-3)[Neu5Ac(a2-6)]GalNAc
# How it was run: as §1
# Neu5Ac(a2-6)Gal = biological target: Neu5Ac(a2-6)Gal
# How it was run: as §1
# Neu5Ac(a2-6)Gal(b1-4)Glc = biological target: Neu5Ac(a2-6)Gal(b1-4)Glc
# How it was run: as §1
# [5] = biological target: Neu5Ac(a2-6)Gal(b1-4)GlcNAc
# How it was run: as §1
# [6] = biological target: Neu5Ac(a2-6)Gal(b1-4)GlcNAc(b1-2)Man(a1-3)[Neu5Ac(a2-6)Gal(b1-4)GlcNAc(b1-2)Man(a1-6)]Man(b1-4)GlcNAc(b1-4)GlcNAc
# How it was run: as §1
# [7] = biological target: Neu5Ac(a2-6)Gal(b1-4)GlcNAc(b1-3)Gal(b1-4)GlcNAc
# How it was run: as §1
# [8] = biological target: Neu5Ac(a2-6)Gal(b1-4)GlcNAc(b1-3)Gal(b1-4)[Fuc(a1-3)]GlcNAc(b1-3)Gal(b1-4)[Fuc(a1-3)]GlcNAc
# How it was run: as §1
# [9] = biological target: Neu5Ac(a2-6)Gal(b1-4)GlcNAc6S
# How it was run: as §1
# Neu5Ac(a2-6)GalNAc = biological target: Neu5Ac(a2-6)GalNAc
# How it was run: as §1
# [10] = biological target: Neu5Ac(a2-6)GalNAc(b1-4)GlcNAc
# How it was run: as §1
# Neu5Ac(a2-8)Neu5Ac = biological target: Neu5Ac(a2-8)Neu5Ac
# How it was run: as §1
# [11] = biological target: Neu5Ac(a2-8)Neu5Ac(a2-3)Gal(b1-4)Glc
# How it was run: as §1
# [12] = biological target: Neu5Ac(a2-8)Neu5Ac(a2-3)[GalNAc(b1-4)]Gal(b1-4)Glc
# How it was run: as §1
# [13] = biological target: Neu5Ac(a2-8)Neu5Ac(a2-8)Neu5Ac
# How it was run: as §1
# [14] = biological target: Neu5Ac(a2-8)Neu5Ac(a2-8)Neu5Ac(a2-3)Gal(b1-4)Glc
# How it was run: as §1
# [15] = biological target: Neu5Ac(a2-8)Neu5Ac(a2-8)Neu5Ac(a2-3)[GalNAc(b1-4)]Gal(b1-4)Glc
# How it was run: as §1
# [16] = biological target: Neu5Ac(a2-8)Neu5Ac(a2-8)Neu5Ac(a2-8)Neu5Ac(a2-3)[GalNAc(b1-4)]Gal(b1-4)Glc
# How it was run: as §1
# [17] = biological target: Neu5Ac(b2-6)Gal(b1-4)GlcNAc
# How it was run: as §1
# Neu5Ac(b2-6)GalNAc = biological target: Neu5Ac(b2-6)GalNAc
# How it was run: as §1
# [18] = biological target: Neu5Ac9Ac(a2-6)Gal(b1-4)GlcNAc
# How it was run: as §1
# [19] = biological target: Neu5Gc(a2-3)Gal(b1-3)GlcNAc
# How it was run: as §1
# [20] = biological target: Neu5Gc(a2-3)Gal(b1-3)[Fuc(a1-4)]GlcNAc
# How it was run: as §1
# Neu5Gc(a2-3)Gal(b1-4)Glc = biological target: Neu5Gc(a2-3)Gal(b1-4)Glc
# How it was run: as §1
# [21] = biological target: Neu5Gc(a2-3)Gal(b1-4)GlcNAc
# How it was run: as §1
# [22] = biological target: Neu5Gc(a2-3)Gal(b1-4)[Fuc(a1-3)]GlcNAc
# How it was run: as §1
# [23] = biological target: Neu5Gc(a2-6)Gal(b1-4)GlcNAc
# How it was run: as §1
# Neu5Gc(a2-6)GalNAc = biological target: Neu5Gc(a2-6)GalNAc
# How it was run: as §1
binder,measurement,setting,value
B1,glycan array binding signal (z-score),Neu5Ac(a2-3)GalNAc,-0.137
same,glycan array binding signal (z-score),[1],-0.786
same,glycan array binding signal (z-score),[2],-0.615
same,glycan array binding signal (z-score),[3],-0.442
same,glycan array binding signal (z-score),[4],-0.566
same,glycan array binding signal (z-score),Neu5Ac(a2-6)Gal,0.013
same,glycan array binding signal (z-score),Neu5Ac(a2-6)Gal(b1-4)Glc,-0.673
same,glycan array binding signal (z-score),[5],-0.311
same,glycan array binding signal (z-score),[6],0.184
same,glycan array binding signal (z-score),[7],-0.702
same,glycan array binding signal (z-score),[8],-0.215
same,glycan array binding signal (z-score),[9],0.054
same,glycan array binding signal (z-score),Neu5Ac(a2-6)GalNAc,5.01
same,glycan array binding signal (z-score),[10],-0.618
same,glycan array binding signal (z-score),Neu5Ac(a2-8)Neu5Ac,-0.726
same,glycan array binding signal (z-score),[11],-0.962
same,glycan array binding signal (z-score),[12],-0.576
same,glycan array binding signal (z-score),[13],-0.629
same,glycan array binding signal (z-score),[14],-0.596
same,glycan array binding signal (z-score),[15],-0.901
same,glycan array binding signal (z-score),[16],2.24
same,glycan array binding signal (z-score),[17],-0.856
same,glycan array binding signal (z-score),Neu5Ac(b2-6)GalNAc,-0.755
same,glycan array binding signal (z-score),[18],0.123
same,glycan array binding signal (z-score),[19],-0.727
same,glycan array binding signal (z-score),[20],-0.954
same,glycan array binding signal (z-score),Neu5Gc(a2-3)Gal(b1-4)Glc,-0.335
same,glycan array binding signal (z-score),[21],-0.45
same,glycan array binding signal (z-score),[22],-0.203
same,glycan array binding signal (z-score),[23],-0.678
same,glycan array binding signal (z-score),Neu5Gc(a2-6)GalNAc,-0.031

# At a glance, some entries already given:
binder,measurement,setting,value
B1,glycan array binding signal (z-score),[19],-0.727
same,glycan array binding signal (z-score),[20],-0.954
same,glycan array binding signal (z-score),Neu5Gc(a2-3)Gal(b1-4)Glc,-0.335
same,glycan array binding signal (z-score),[21],-0.45
same,glycan array binding signal (z-score),[22],-0.203
same,glycan array binding signal (z-score),[23],-0.678
